{
  "source": "paper PMC9106718",
  "target": "T1, GFP-tagged human heme oxidase-1 (human) (UniProt P09601)",
  "T1 sequence": "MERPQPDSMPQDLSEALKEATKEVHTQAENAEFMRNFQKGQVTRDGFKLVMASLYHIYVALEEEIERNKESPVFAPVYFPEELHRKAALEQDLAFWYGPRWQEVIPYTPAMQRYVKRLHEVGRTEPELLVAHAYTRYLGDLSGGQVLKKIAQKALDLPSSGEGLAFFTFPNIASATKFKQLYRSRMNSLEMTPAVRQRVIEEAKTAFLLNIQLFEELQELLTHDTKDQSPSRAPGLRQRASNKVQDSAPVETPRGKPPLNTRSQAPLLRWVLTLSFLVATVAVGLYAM",
  "assay": "co-IP; INS-1 832/13 lysate (50 mM Tris-HCl pH 7.5, 150 mM NaCl, 1 mM EDTA, 0.1% NP-40) incubated with GFP-trap agarose beads 15 min at 4 °C; blotted with anti-RFP and anti-GFP; also after low (2.8 mM) or high (25 mM) glucose for 15 min",
  "note": "Results are given in words; binding and its absence hold for the method and conditions named. In cells and extracts the contact can be indirect. Tags and fused reporters may be left off the sequences shown.",
  "data": [
    {"substance": "proinsulin-mRFP (from human preproinsulin tagged with mRFP at its C-terminus)", "values": [
      {"measurement": "binding", "value": "no binding"}
    ]}
  ]
}
